{
  "source": "patent US20190276499A1",
  "about": "“Protein VII Fragments and Methods of Use Thereof for the Treatment of Inflammatory Disorders” (priority 2016, published 2019)",
  "key": {"[1]": {"target": "T1, recombinant GST construct encoding the HMGB1 C-terminus (UniProt P09429)", "T1 sequence": "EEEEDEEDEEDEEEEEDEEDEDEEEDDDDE", "experiment": "in vitro GST pull down"}, "HMGB1-GST (Abnova)": {"target": "HMGB1-GST (Abnova) (UniProt P09429)", "experiment": "in vitro pull-down on cobalt resin, coomassie-stained SDS-PAGE"}, "[2]": {"target": "recombinant GST construct encoding full-length HMGB1 (UniProt P09429)", "experiment": "in vitro GST pull down, coomassie SDS-PAGE and western blot for GST or His"}, "[3]": {"target": "T1, recombinant GST construct encoding the HMGB1 C-terminus", "experiment": "in vitro GST pull down, coomassie SDS-PAGE and western blot for GST or His"}, "[4]": {"target": "HMGB1 (endogenous, in A549 cells) (UniProt P09429)", "experiment": "co-immunoprecipitation from A549 cells, western blot"}, "[5]": {"target": "HMGB1 (endogenous, in A549 cells) (UniProt P09429)", "experiment": "HA-bead immunoprecipitation from induced A549 cells, western blot"}, "[6]": {"target": "HMGB1 (endogenous, in A549 cells) (UniProt P09429)", "experiment": "GFP immunoprecipitation from transfected A549 cells"}},
  "note": "No constants are given. Whether binding was seen depends on the method and setting. For some of these results: Binding seen in cells or lysates may run through a third protein. Some results given as binding are weak or reduced against the parent protein; the word gives no strength. Tags and fused reporters may be left off the sequences shown.",
  "data": [
    {"binder": "recombinant protein VII-His (protein) AKKRSDQHPVRVRGHYRAPWGAHKRGRTGRTTVDDAIDAVVEEARNYTPTPPPVSTVDAAIQTVVRGARRYAKMKRRRRRVARRHRRRPGTAAQRAAAALLNRARRTGRRAAMRAARRLAAGIVTVPPRSRRRAAAAAAAAISAMTQGRRGNVYWVRDSVSGLRVPVRTRPPRN", "values": [
      {"measurement": "binding", "setting": "[1]", "result": "binds"},
      {"measurement": "binding", "setting": "HMGB1-GST (Abnova)", "result": "binds"},
      {"measurement": "binding", "setting": "[2]", "result": "binds"},
      {"measurement": "binding", "setting": "[3]", "result": "binds"}
    ]},
    {"binder": "protein VII-HA from human adenovirus serotype 5 (protein) AKKRSDQHPVRVRGHYRAPWGAHKRGRTGRTTVDDAIDAVVEEARNYTPTPPPVSTVDAAIQTVVRGARRYAKMKRRRRRVARRHRRRPGTAAQRAAAALLNRARRTGRRAAMRAARRLAAGIVTVPPRSRRRAAAAAAAAISAMTQGRRGNVYWVRDSVSGLRVPVRTRPPRN", "values": [
      {"measurement": "binding", "setting": "[4]", "result": "binds"},
      {"measurement": "binding", "setting": "[5]", "result": "binds"}
    ]},
    {"binder": "full-length Ad5 protein VII tagged with GFP (protein) AKKRSDQHPVRVRGHYRAPWGAHKRGRTGRTTVDDAIDAVVEEARNYTPTPPPVSTVDAAIQTVVRGARRYAKMKRRRRRVARRHRRRPGTAAQRAAAALLNRARRTGRRAAMRAARRLAAGIVTVPPRSRRRAAAAAAAAISAMTQGRRGNVYWVRDSVSGLRVPVRTRPPRN", "values": [
      {"measurement": "binding", "setting": "[6]", "result": "binds"}
    ]}
  ]
}
